Measured values as given in patent US20070185089A1, “Benzazepine derivatives for the treatment of neurological and psychiatric disorders” (Glaxo Group Limited, priority 2004, published 2007).
Where “and” joins values, the source holds several entries; their conditions need not be identical. Equal entries are not always repeated. Some of these results come from one statement about several compounds together. For at least one compound, name, drawing or mass did not settle the structure.

Protein sequences, listed by entry. Tags and fused reporters are not part of them. Lines headed by an entry give the natural chain unless they say otherwise; changes in a name come on top.
UniProt P35367, whole entry: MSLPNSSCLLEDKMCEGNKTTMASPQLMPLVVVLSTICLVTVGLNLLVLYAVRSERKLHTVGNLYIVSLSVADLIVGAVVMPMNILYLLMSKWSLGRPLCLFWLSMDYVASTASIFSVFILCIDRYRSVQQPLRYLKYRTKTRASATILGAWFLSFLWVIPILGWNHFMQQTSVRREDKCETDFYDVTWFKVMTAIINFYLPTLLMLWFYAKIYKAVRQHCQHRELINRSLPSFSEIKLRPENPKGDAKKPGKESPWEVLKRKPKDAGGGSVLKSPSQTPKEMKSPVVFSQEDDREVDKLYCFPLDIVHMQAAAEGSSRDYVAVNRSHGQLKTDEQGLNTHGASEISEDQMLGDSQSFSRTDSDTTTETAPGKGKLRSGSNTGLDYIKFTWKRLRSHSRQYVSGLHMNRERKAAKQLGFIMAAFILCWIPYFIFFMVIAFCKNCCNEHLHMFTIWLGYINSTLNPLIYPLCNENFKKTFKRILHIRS
UniProt Q9Y5N1: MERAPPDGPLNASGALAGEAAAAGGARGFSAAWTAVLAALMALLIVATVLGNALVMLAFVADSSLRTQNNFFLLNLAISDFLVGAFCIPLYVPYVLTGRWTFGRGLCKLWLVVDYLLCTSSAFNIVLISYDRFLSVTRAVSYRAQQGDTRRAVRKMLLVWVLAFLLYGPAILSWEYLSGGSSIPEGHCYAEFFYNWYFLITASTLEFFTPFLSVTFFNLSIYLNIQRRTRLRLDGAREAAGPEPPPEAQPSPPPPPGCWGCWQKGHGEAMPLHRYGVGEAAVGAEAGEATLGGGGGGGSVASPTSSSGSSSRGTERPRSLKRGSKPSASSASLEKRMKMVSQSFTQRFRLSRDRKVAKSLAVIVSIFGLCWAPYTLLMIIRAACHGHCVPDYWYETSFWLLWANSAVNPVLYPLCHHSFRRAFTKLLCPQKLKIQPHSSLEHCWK

Experiments:
[1] = target: T1, human H1 receptor (Homo sapiens, UniProt P35367); test: Histamine H1 functional antagonist assay (FLIPR, cell fluorescence); format: cell-based; conditions: CHO cells expressing human H1 receptor, histamine at EC80
T1 construct: expressed in transfected cells

[2] = target: T2, histamine H3 receptor (Homo sapiens, UniProt Q9Y5N1); test: Histamine H3 functional antagonist assay (method A), [35S]-GTPγS SPA on membranes; format: biochemical; conditions: histamine at EC80
T2 construct: expressed in transfected cells; host or cells: CHO K1 cells carrying pSwitch, transfected with pGeneH3; mifepristone-induced; clone 3H3; membranes

SMILES	antagonism in the histamine H1 functional antagonist assay [1] [pKb]	antagonism in the histamine H3 functional antagonist assay (method A) [2]
COc1ccc(NC(=O)N2CCN(c3ccc4c(c3)CCN(C3CCC3)CC4)CC2)cc1 [Example E11, 4-(3-Cyclobutyl-2,3,4,5-tetrahydro-1H-3-benzazepin-7-yl)-N-[4-(methyloxy)phenyl]-1-piperazinecarboxamide]	< 6.3	> 9.0 pKb and > 6.5 pKb
O=C(c1ccc2nccnc2c1)N1CCC(c2ccc3c(c2)CCN(C2CCC2)CC3)CC1 [Example E218, 3-cyclobutyl-7-[1-(6-quinoxalinylcarbonyl)-4-piperidinyl]-2,3,4,5-tetrahydro-1H-3-benzazepine]	< 6.3	> 9.0 pKb and > 6.5 pKb
CN(C)c1cccc2c(S(=O)(=O)N3CCN(c4ccc5c(c4)CCN(C4CCCC4)CC5)CC3)cccc12 [Example E55, 5-{[4-(3-Cyclopentyl-2,3,4,5-tetrahydro-1H-3-benzazepin-7-yl)-1-piperazinyl]sulfonyl}-N,N-dimethyl-1-naphthalenamine]	< 6.3	> 6.5 pKb
O=S(=O)(c1ccc(-c2ccccn2)s1)N1CCN(c2ccc3c(c2)CCN(C2CCCC2)CC3)CC1 [Example E63, 3-Cyclopentyl-7-(4-{[5-(2-pyridinyl)-2-thienyl]sulfonyl}-1-piperazinyl)-2,3,4,5-tetrahydro-1H-3-benzazepine]	< 6.3	> 6.5 pKb
O=C(c1cccc2ccccc12)N1CCN(c2ccc3c(c2)CCN(C2CCC2)CC3)CC1 [Example E239, 3-cyclobutyl-7-[4-(1-naphthalenylcarbonyl)-1-piperazinyl]-2,3,4,5-tetrahydro-1H-3-benzazepine]	< 6.3	> 6.5 pKb
O=S(=O)(c1cccc2ccccc12)N1CCN(c2ccc3c(c2)CCN(C2CCCC2)CC3)CC1 [Example E59, 3-Cyclopentyl-7-[4-(1-naphthalenylsulfonyl)-1-piperazinyl]-2,3,4,5-tetrahydro-1H-3-benzazepine]	< 6.3	> 6.5 pKb
O=S(=O)(c1ccsc1)N1CCN(c2ccc3c(c2)CCN(C2CCCC2)CC3)CC1 [Example E34, 3-Cyclopentyl-7-[4-(3-thienylsulfonyl)-1-piperazinyl]-2,3,4,5-tetrahydro-1H-3-benzazepine]	< 6.3	> 6.5 pKb
O=S(=O)(c1ccc(OC(F)(F)F)cc1)N1CCN(c2ccc3c(c2)CCN(C2CCCC2)CC3)CC1 [Example E69, 3-Cyclopentyl-7-[4-({4-[(trifluoromethyl)oxy]phenyl}sulfonyl)-1-piperazinyl]-2,3,4,5-tetrahdro-1H-3-benzazepine]	< 6.3	> 6.5 pKb
CNC(=O)c1cnc(N2CCC(c3ccc4c(c3)CCN(C3CCC3)CC4)CC2)cn1 [Example E226, 5-[4-(3-cyclobutyl-2,3,4,5-tetrahydro-1H-3-benzazepin-7-yl)-1-piperidinyl]-N-methyl-2-pyrazinecarboxamide]	< 6.3	> 9.0 pKb and > 6.5 pKb
CNC(=O)c1ccc(N2CCC(c3ccc4c(c3)CCN(C3CCC3)CC4)CC2)cn1 [Example E227, 5-[4-(3-cyclobutyl-2,3,4,5-tetrahydro-1H-3-benzazepin-7-yl)-1-piperidinyl]-N-methyl-2-pyridinecarboxamide]	< 6.3	> 9.0 pKb and > 6.5 pKb
